No constants are given. Whether binding was seen depends on the method and setting. Some binding calls cover weakened binding; strength is not graded here.
Biological target: T1, AtERF017 (Arabidopsis) (UniProt Q84QC2)
T1 sequence: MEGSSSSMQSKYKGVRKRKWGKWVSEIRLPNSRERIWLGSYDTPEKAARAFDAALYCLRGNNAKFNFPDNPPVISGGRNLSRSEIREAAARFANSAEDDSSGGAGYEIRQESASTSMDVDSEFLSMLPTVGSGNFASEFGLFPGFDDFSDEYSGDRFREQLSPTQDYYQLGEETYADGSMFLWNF
Test: two-hybrid; DUALhunter system, pairwise: ERF in pDHB1 as bait, VHA-c subunit in pPR3N as prey, yeast NMY51; growth on QDO and QDO + 10 mM 3AT

binding: binds
B1: AtVHA-c4 (protein, UniProt P59229 1-166)
chain: MASSGFSGDETAPFFGFLGAAAALVFSCMGAAYGTAKSGVGVASMGVMRPELVMKSIVPVVMAGVLGIYGLIIAVIISTGINPKAKSYYLFDGYAHLSSGLACGLAGLSAGMAIGIVGDAGVRANAQQPKLFVGMILILIFAEALALYGLIVGIILSSRAGQSRAE

Source: paper PMC4738278
